Source: patent publication US20210244712A1, “METHODS FOR TREATING PATIENTS WITH CANCER HAVING DEFECTS IN CYCLIN D REGULATION” (NysnoBio Ireland DAC, priority 2018, published 2021)
For at least one compound, name, drawing or mass did not settle the structure.

Experiments:
Assay type in all cases: cell-based
[1] = system: HCT-116; assay: Senescence quantification (SA-βGal), Example 6A; details: Compound 42 250 nM, Palbociclib 1 μM, compared to control (DMSO)
Description: Day 1: 96 well plate was seeded with 4000 cells/well and incubated for 24 hours at 37° C. […]
Day 6: Senescence cells histochemical Staining Kit (Sigma) was used. The growth medium form the cells were aspirated then washed twice with fresh […]. […] 100 μL filtered Fixation Buffer was added per well and the plate was incubated for 6-7 minutes at room temperature. Then, the cells were rinsed 3 times with PBS. 50 μL of the Staining Mixture was added per well and incubated at 37° C. overnight without CO2 (staining is pH dependent). After staining, the Staining Mixture was removed, PBS and Hoechst dye (1 μg/mL) were added. Ten images were taken with Epifluorescence Microscope using the blue filter and 10 images were taken in the brightfield. The images were used to count the total cell number—the positive blue cells were counted in the bright field. The percentage of cells expressing β-galactosidase was calculated.
Method 1: Mammalian β-Galactosidase Assay Kit (Thermo Scientific) was used. […] The cells were washed once with PBS. 100 μL of the β-Galactosidase Assay Reagent was added to each well and the plate was covered and incubated for 30 minutes at 37° C. without CO2. The absorbance was measured at 405 nm. […]
Method 2: Assay of a portion of the lysate. […] 25 μL of lysate was removed and use it for Protein Quantification (BCA). […]
Senescence was quantified according to Example 4. […]

[2] = system: cyclin D1; assay: Western blot of cellular biomarker cyclin D1; details: 250 nM Compound 42, 1 μM Palbociclib, 24 hours
Description: (§1) Various cancer cells lines were treated with Compound 42 or palbociclib (control) to measure the expression of cyclin D, cyclin E, pRb, and Rb.
(§2) Day 1: 6 well plate was seeded with 3×10^5 cells/well with a final volume of 3 mL and incubated for 24 hours at 37° C.
(§3) Day 2: The media was removed and Compound 42 (see below for dose) or palbociclib (1 μM) as positive control were added to the wells the desired concentration in cell culture media, giving a final volume of 3 mL per well. The plate was incubated for 24 hours at 37° C. (or desired period).
Day 3: The media was removed from wells and washed ×3 with PBS. 500 μl of trypsin was added to the wells and incubate until cells detach. 500 μl media was added to neutralise trypsin, transferred to 2 ml Eppendorfs, and centrifuged (1500 RPM for 5 minutes). While spinning, the wells were washed with 1 mL PBS to collect any remaining cells. This wash was used to centrifuged cell pellet. After the first spin, the supernatant was discarded and the pellet was washed with PBS collected from the previous step. The centrifugation step was repeated and the supernatant was discarded and the pellet wash again with fresh PBS. The centrifugation and wash with PBS was repeated one more time. RIPA cell lysate buffer was prepared and Protease Inhibitor Cocktail was included. The supernatant was discarded and […] RIPA cell lysate buffer was added to the pellet. The protein concentration was determined using the BCA assay kit.
Day 4: Western blot analysis was performed. 4-12% Bis-Tris gel and MOPS running buffer was used. The running buffer was made to sufficient volume of running buffer to 1× concentration. 20 μg protein (v/v loading & reducing buffer) of each sample was loaded into wells. Some proteins may require more, or less, protein loaded. The gel was ran at standard settings 200 V for 45 minutes. Once gel has run, the gel was transferred for 7 minutes using the iBlot Blotting System. The membrane was blocked using 5% non-fat powdered milk* made up in 1×TBS containing 0.1% Tween (TBS-T and incubated for 1 hr with gentle rocking. The observation from the Western blot analysis is quantified in FIGS. 2-7D.
Cell lines A2780 (ovarian cell line with no cyclin D pathway mutations), ES-2 (ovarian cell line with cyclin D amplification, p53 mutation), OAW42, and SW626 were treated with DMSO (control), 250 nM of Compound 42, or 1 μM of Palbociclib. Treated cells were incubated for 24 hours and data represented in FIGS. 2-5 represents n=3.

[3] = system: Cyclin D; assay: Western blot of cellular biomarker cyclin D; details: HCT-116 (p16 mutation); Compound 42 250 nM, Palbociclib 1 μM
Description: as §1, §2, §3
Day 3: The media was removed from wells and washed ×3 with PBS. 500 μl of trypsin was added to the wells and incubate until cells detach. 500 μl media was added to neutralise trypsin, transferred to 2 ml Eppendorfs, and centrifuged (1500 RPM for 5 minutes). While spinning, the wells were washed with 1 mL PBS to collect any remaining cells. This wash was used to centrifuged cell pellet. After the first spin, the supernatant was discarded and the pellet was washed with PBS collected from the previous step. […] The protein concentration was determined using the BCA assay kit.
Day 4: Western blot analysis was performed. […] The membrane was blocked using 5% non-fat powdered milk* made up in 1×TBS containing 0.1% Tween (TBS-T and incubated for 1 hr with gentle rocking. The observation from the Western blot analysis is quantified in FIGS. 2-7D. […]

CC(=O)c1c(C)c2cnc(Nc3ccc(N4CCNCC4)cn3)nc2n(C2CCCC2)c1=O [palbociclib, reference compound]
senescence (SA-βGal levels) [1]: to a lesser extent | cyclin D1 expression ([2]; A2780): did not reduce the expressions of cyclin D1 | cyclin D1 expression ([2]; ES-2): did not reduce the expressions of cyclin D1 | cyclin D1 expression ([2]; OAW42): did not reduce the expressions of cyclin D1 | cyclin D1 expression ([2]; SW626): did not reduce the expressions of cyclin D1 | normalization of cyclin D [3]: to a lesser extent
